Publication PMC10721329, “Quisinostat is a brain-penetrant radiosensitizer in glioblastoma” (JCI Insight, 2023)
Values joined by “and” are separate entries in the source; they are usually repeats but may differ in a detail not shown here. Identical values can stand only once. This continues a long series; more values of the same kind are listed elsewhere.

Assay: Total and unbound QST in tumor and contralateral brain at survival end point, orthotopic GB126 PDX
Type: in vivo
Conditions: individual mice
Experimental: All mice included in the survival study were processed for end-point PK and PD analyses once moribund. Plasma, tumor, and contralateral brain tissues were harvested 3 hours after dosing with 10 mg/kg QST, allowing for direct comparison of long-term treatment with the PK-PD data collected from acute (1-week) treatment with QST or combination therapy (Figure 8A). […] There were no significant differences in total or unbound drug concentrations in tumor or brain tissue between the monotherapy or combination therapy cohorts (Figure 8, E and F). Immunoblot analysis of dissected tumor samples confirmed that QST induced substantial histone H3 hyperacetylation in brain tumors, compared with untreated animals, consistent with an in vivo on-target effect (Figure 9, A and B).
QST concentrations in specimens were measured using reverse-phase LC on the AB SCIEX QTRAP6500+ LC-MS/MS system by operating electrospray in the positive ion mode. For liquid chromatographic separation, gradient elution was performed using a Phenomenex Kinetex F5 100 Å column (100 × 2.1 mm, 2.6 μm). The initial composition of the mobile phase was 70% phase A (0.1% formic acid in water) and 30% phase B (0.1% formic acid in 1:1 acetonitrile/methanol) with a 0.35 mL/min flow rate. Gradient elution was achieved as follows: mobile phase (B) was maintained at 30% from 0 to 0.3 minutes, increased to 95% from 0.3 to 0.8 minutes, maintained at 95% from 0.8 to 2.5 minutes, and decreased to 30% from 2.5 to 2.8 minutes. The total run time was 3.5 minutes. The internal standard used in this study was D8-infigratinib. The retention times for QST and D8-infigratinib were 1.6 and 1.8 minutes, respectively. Mass-to-charge ratio transitions were as follows: 395.20 → 144.00 (QST) and 568.08 → 321.00 (D8-infigratinib). LC-MS/MS analysis was performed using an Analyst 1.7 Chromatographic Data System. See Supplemental Methods for detailed PK experiments.
Gy on MWF for a total of 6 Gy in the first week of treatment. Treatment groups included vehicle (50% PEG-3000), QST (10 mg/kg) alone, 6 Gy whole-brain IR treatment with vehicle, and 6 Gy whole-brain IR treatment with 10 mg/kg QST. QST was administered to mice through intraperitoneal injections two hours prior to whole-brain radiation treatment. Upon completion of the radiation regimen, IR-treated mice subsequently received QST or vehicle alone for the rest of the experiment. Tumor growth and treatment response was monitored by IVIS bioluminescence […]
once per week. […]
Tissue from the hemisphere contralateral to the tumor was also collected as a normal brain/nontumor reference sample. For PK analyses, the mice were anesthetized with isoflurane, and at least 300 μL of blood was drawn from the right ventricle of the heart. The blood was collected in tubes containing 10 μL of 0.1 M KOH in EDTA to prevent blood coagulation. Blood samples were immediately centrifuged at 3000 rpm for 10 minutes at 4 °C to allow separation of plasma. After collection of the blood, the tumor was dissected out of the brain and flash -frozen.
Both plasma and erythrocytes were flash-frozen for subsequent analysis. […]
vortex-mixed for 10 s and centrifuged at 12000 g at 4 °C for 10 min. A 100-µL aliquot of the supernatant was transferred to an autosampler vial, and 5 µL was injected into the LC-MS/MS system for analysis. Whenever necessary, appropriate dilutions were made to accommodate the analysis of small volume samples.
Brain and Brain Tumor Sample Preparation
Normal brain and brain tumor tissue homogenates were prepared by 1:4 (mass/volume) ratio with PBS. Samples were homogenized under 6.00 m/s speed for 40 seconds with 3 cycles by Bead Ruptor Elite homogenizer (Omni International). Plasma was used as a surrogate matrix for brain/tumor homogenate. Brain homogenate samples from in vivo studies were prepared as described for plasma samples. Analyte and IS were extracted by protein precipitation with methanol containing IS. After centrifugation at 12000 rpm for 10 minutes at 4 °C, 5 µL of […]

Cn1cc(CNCC2CCN(c3ncc(C(=O)NO)cn3)CC2)c2ccccc21 [QST, quisinostat]
TOTAL [QST], Brain (Combination (QST + IR) cohort): 72.315 nM and 29.62 nM and 43.55 nM
TOTAL [QST], Plasma (Combination (QST + IR) cohort): 399.985 nM and 2.207 nM and 49.439 nM and 110.769 nM
TOTAL [QST], Tumor (Combination (QST + IR) cohort): 710.135 nM and 2570.02 nM and 437.835 nM and 468.51 nM and 1334.08 nM
UNBOUND [QST], Brain (Combination (QST + IR) cohort): 3.616 nM and 1.481 nM and 2.1775 nM
UNBOUND [QST], Plasma (Combination (QST + IR) cohort): 158.394 nM and 0.874 nM and 19.5778 nM and 43.8645 nM
UNBOUND [QST], Tumor (Combination (QST + IR) cohort): 35.5068 nM and 128.501 nM and 21.8918 nM and 23.4255 nM and 66.7037 nM
UNBOUND [QST], Plasma (QST cohort): 209.240 nM
UNBOUND [QST], Tumor (QST cohort): 93.340 nM and 77.020 nM and 33.360 nM and 81.880 nM
TOTAL [QST], Brain (QST cohort, survival cohorts): 20.975 nM and 88.070 nM and 131.685 nM and 30.585 nM and 88.07 nM
TOTAL [QST], Plasma (QST cohort, survival cohorts): 90.238 nM and 253.568 nM and 187.867 nM and 528.383 nM
TOTAL [QST], Tumor (QST cohort, survival cohorts): 1866.805 nM and 1540.405 nM and 667.195 nM and 1637.600 nM and 1866.81 nM and 1540.4 nM and 1637.6 nM
